Results are given in words; binding and its absence hold for the method and conditions named. In cells and extracts the contact can be indirect. Binding can be weak; no strength is given. One block for each molecule: values may come before it.
How the values were obtained:
[1] = target: T1, Fibrillarin (Drosophila (endogenous in larvae)) (UniProt Q9W1V3); experiment: co-IP; rabbit anti-Fibrillarin antibody; extracts of Drosophila stock expressing PARPe-EGFP (wild type as negative control); Western blot with mouse anti-GFP
T1 sequence: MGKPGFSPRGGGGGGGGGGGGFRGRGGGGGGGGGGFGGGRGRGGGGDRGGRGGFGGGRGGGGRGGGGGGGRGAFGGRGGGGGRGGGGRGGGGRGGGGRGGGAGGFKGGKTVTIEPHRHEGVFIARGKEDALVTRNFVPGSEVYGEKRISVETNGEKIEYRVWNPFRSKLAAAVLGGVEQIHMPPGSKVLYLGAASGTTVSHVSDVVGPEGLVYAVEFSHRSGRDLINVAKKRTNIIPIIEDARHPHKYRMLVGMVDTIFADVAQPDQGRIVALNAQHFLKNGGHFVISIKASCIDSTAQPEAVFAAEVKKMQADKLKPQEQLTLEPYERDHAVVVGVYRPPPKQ

[2] = target: T2, Coilin (Drosophila (endogenous in larvae)) (UniProt A1Z7A8); experiment: co-IP; guinea pig anti-Coilin antibody, Protein-G Sepharose; total protein extracts of Drosophila PARP1 mutant stock expressing PARP1-ECFP or PARPe-EGFP (wild type as control); Western blot
T2 sequence: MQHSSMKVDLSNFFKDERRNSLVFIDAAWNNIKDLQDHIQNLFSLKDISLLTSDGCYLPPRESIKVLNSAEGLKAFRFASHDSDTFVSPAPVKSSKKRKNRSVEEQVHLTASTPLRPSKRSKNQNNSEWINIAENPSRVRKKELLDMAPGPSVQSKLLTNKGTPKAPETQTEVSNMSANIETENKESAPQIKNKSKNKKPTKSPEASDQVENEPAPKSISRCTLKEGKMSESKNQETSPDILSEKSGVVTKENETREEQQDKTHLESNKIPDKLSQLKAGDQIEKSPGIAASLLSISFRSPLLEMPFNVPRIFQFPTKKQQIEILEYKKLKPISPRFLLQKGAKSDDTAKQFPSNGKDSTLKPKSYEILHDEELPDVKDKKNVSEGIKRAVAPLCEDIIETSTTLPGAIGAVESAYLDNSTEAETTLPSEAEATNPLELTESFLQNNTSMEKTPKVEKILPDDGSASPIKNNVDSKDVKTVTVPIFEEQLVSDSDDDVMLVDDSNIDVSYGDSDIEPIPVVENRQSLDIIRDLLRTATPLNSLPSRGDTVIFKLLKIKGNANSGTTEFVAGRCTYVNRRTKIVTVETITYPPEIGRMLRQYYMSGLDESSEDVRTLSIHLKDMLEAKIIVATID

[3] = target: PARPe-EGFP (Drosophila); experiment: co-IP; rabbit anti-GFP antibody, Protein-G Sepharose; extracts of Drosophila stocks expressing PARP1-ECFP or PARPe-EGFP (wild type as control); Western blot

- binding [1]: binds
- binding [2]: binds
Molecule: PARPe-EGFP (Drosophila)

- binding [3]: no binding
B1: disk-large (Dlg) (protein, UniProt P31007 1-970)
chain: MPVKKQEAHRALELLEDYHARLSEPQDRALRIAIERVIRIFKSRLFQALLDIQEFYELTLLDDSKSIQQKTAETLQIATKWEKDGQAVKIADFIKSSNLNRNCAYEFNNDASSNQTNQSALNQNPIANNVSAQAQAEALSRTFKSELEEILNQRMRIESDTENAKEPTVEQQQKQQQAQQRSSRSPQQQNPQQQQGSKSRSGSQTVNGDDSWLYEDIQLERGNSGLGFSIAGGTDNPHIGTDTSIYITKLISGGAAAADGRLSINDIIVSVNDVSVVDVPHASAVDALKKAGNVVKLHVKRKRGTATTPAAGSAAGDARDSAASGPKVIEIDLVKGGKGLGFSIAGGIGNQHIPGDNGIYVTKLMDGGAAQVDGRLSIGDKLIAVRTNGSEKNLENVTHELAVATLKSITDKVTLIIGKTQHLTTSASGGGGGGLSSGQQLSQSQSQLATSQSQSQVHQQQHATPMVNSQSTEPGSRYASTNVLAAVPPGTPRAVSTEDITREPRTITIQKGPQGLGFNIVGGEDGQGIYVSFILAGGPADLGSELKRGDQLLSVNNVNLTHATHEEAAQALKTSGGVVTLLAQYRPEEYNRFEARIQELKQQAALGAGGSGTLLRTTQKRSLYVRALFDYDPNRDDGLPSRGLPFKHGDILHVTNASDDEWWQARRVLGDNEDEQIGIVPSKRRWERKMRARDRSVKFQGHAAANNNLDKQSTLDRKKKNFTFSRKFPFMKSRDEKNEDGSDQEPFMLCYTQDDANAEGASEENVLSYEAVQRLSINYTRPVIILGPLKDRINDDLISEYPDKFGSCVPHTTRPKREYEVDGRDYHFVSSREQMERDIQNHLFIEAGQYNDNLYGTSVASVREVAEKGKHCILDVSGNAIKRLQVAQLYPVAVFIKPKSVDSVMEMNRRMTEEQAKKTYERAIKMEQEFGEYFTGVVQGDTIEEIYSKVKSMIWSQSGPTIWVPSKESL

- binding [3]: binds
B2: Coilin (protein, UniProt A1Z7A8 1-634)
chain: T2 sequence
